Results published in US20160264674A1 (ADURO BIOTECH HOLDINGS EUROPE B V, published 2016).
Residue numbers refer to the chain shown, from its start. Names and notes keep the numbering of the source. Results are given in words; binding and its absence hold for the method and conditions named. Some binding calls cover weakened binding; strength is not graded here.

B1: VH14_1G.VL15 (antibody, human IgG4 S228P, kappa, V domains shown)
VH: QVQLVQSGAEVKKPGASVKVSCKASGYTFTSYVMHWVRQAPGQGLEWMGYINPYNDAPKYNEKFKGKATMTSDTSASTAYMELSSLRSDDTAVYYCARGLGYALYYAMDYWGQGTTVTVSS
VL: DIVMTQSPSTLSASVGDRVTITCKASQNVGNNVAWYQQKPGKAPKLLISSASNRDSGVPSRFSGSGSGTEFTLTISSLQPDDFATYFCQQYNIYPFTFGQGTKLEIKR
notes: VH14_1 with R67K and V68A; Humanized IgG4 (S241P, Kabat) with human kappa; also called 14_1G.15; 14_1 G.15
B2: VH14_1.VL15 (antibody, human IgG4, V domains shown)
VH: B1 VH with K67R, A68V
VL: DIVMTQSPSTLSASVGDRVTITCKASQNVGNNVAWYQQKPGKAPKLLISSASNRDSGVPSRFSGSGSGTEFTLTISSLQPDDFATYFCQQYNIYPFTFGQGTKLEIK
notes: VH14 with R72S; rest is human IgG4 (S241P, Kabat) and human kappa; also called 14_1.15; antibody 14_1.15
B3: VH14.VL15 (antibody, human IgG4 S228P, kappa, V domains shown)
VH: B1 VH with K67R, A68V, S72R
VL: B1 VL
notes: Humanized IgG4 (S241P, Kabat) with human kappa, from HEK293T
B4: VH11.VL15 (antibody, human IgG4 S228P, kappa, V domains shown)
VH: B1 VH with G44R, K67R, A68V, M70I, S72R, D89E
VL: B1 VL
notes: Humanized IgG4 (S241P, Kabat) with human kappa, from HEK293T; also called 11.15
B5: VH12.VL15 (antibody, human IgG4 S228P, kappa, V domains shown)
VH: B1 VH with K67R, A68V, S72R, A76I, S85R
VL: B1 VL
notes: Humanized IgG4 (S241P, Kabat) with human kappa, from HEK293T; also called 12.15
B6: VH13.VL15 (antibody, human IgG4 S228P, kappa, V domains shown)
VH: B1 VH with K67R, A68V, S72R, A76T, A79V, D89E, T116M
VL: B1 VL
notes: Humanized IgG4 (S241P, Kabat) with human kappa, from HEK293T; also called 13.15

Molecular target: T1, FLAG-tagged human APRIL (human, UniProt O75888 105-250, limits assumed)
T1 construct: also called FLAG-tagged APRIL; FLAG-APRIL; not shown: FLAG tag
T1 sequence (looked up): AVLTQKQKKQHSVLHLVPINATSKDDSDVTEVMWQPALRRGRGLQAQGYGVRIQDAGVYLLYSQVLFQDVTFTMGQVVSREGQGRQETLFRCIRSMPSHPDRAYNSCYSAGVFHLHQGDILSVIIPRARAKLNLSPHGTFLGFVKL
Assay: APRIL ELISA and BCMA-Fc competition ELISA

binding, binds:
B1, B2

Molecular target: T1, FLAG-tagged human APRIL
Assay: ELISA on FLAG-tagged human APRIL

binding, binds:
B3, B4, B5, B6
